From patent publication US20100104669A1, “Method for preparing an aqueous solution containing triterpenic acid, aqueous solution containing triterpenic acid, and use thereof” (priority 2008, published 2010)
For part of these data: For at least one compound, name, drawing or mass did not settle the structure. Some entries share one result that the patent states for a list of compounds.

How the values were obtained:
[1] = cited from earlier work
[2] = triterpenic acid content of basic aqueous solution with cyclodextrins (Example 4); assay type: physicochemical; conditions: water with trisodium phosphate (10 mM) and 2 mg/mL cyclodextrins, 120° C. and >2 bar
Method: The triterpenoid-rich powder described in Example 1 was extracted with water in the presence of trisodium phosphate (10 mM) and 2 mg/mL cyclodextrins at 120° C. and >2 bar.
The basic triterpenic acid-rich solution contained more than 100 μg/mL oleanolic acid and more than 8 μg/mL betulinic acid. The basic solution thus prepared was then adjusted to pH 7.4 using an aqueous phosphoric acid solution. The extent of dilution and the solvent quantities were selected in such away that the salt concentration of the neutralized triterpenic acid-rich solution was between 5 and 140 mM.

[3] = triterpenic acid content of basic aqueous solution (trisodium phosphate extraction, Example 1); assay type: physicochemical; conditions: water with trisodium phosphate, extracted at 120° C. and >2 bar, cooled to room temperature, filtered through 0.22 μm filter
Method: Dried annual shoots of mistletoe were extracted with n-heptane at 120° C. and >2 bar pressure. The precipitate obtained upon cooling of the extraction agent was composed of more than 60% oleanolic acid and more than 3% betulinic acid. The triterpenic acid-rich powder thus obtained was extracted with water in the presence of trisodium phosphate at 120° C. and >2 bar pressure to produce a supersaturated basic solution.
The basic triterpenoid-rich solution, cooled to room temperature and filtered through a 0.22 μm filter, contained more than 80 μg/mL oleanolic acid and more than 8 μg/mL betulinic acid. The basic solution thus prepared was then adjusted to pH 7.4 using an aqueous phosphoric acid solution, in the presence of 1.6 μg/mL polysaccharides which had been obtained from mistletoe berries. The extent of dilution and the solvent quantities were selected in such a way that the salt concentration of the neutralized triterpenic acid-rich solution was between 5 and 140 mM.

CC1(C)CC[C@]2(C(=O)O)CC[C@]3(C)C(=CC[C@@H]4[C@@]5(C)CC[C@H](O)C(C)(C)[C@@H]5CC[C@]43C)[C@@H]2C1 [oleanolic acid]
solubility in water [1]: < 0.1 µg/mL

C=C(C)[C@@H]1CC[C@]2(C(=O)O)CC[C@]3(C)[C@H](CC[C@@H]4[C@@]5(C)CC[C@H](O)C(C)(C)[C@@H]5CC[C@]43C)[C@@H]12 [betulinic acid]
content in basic triterpenic acid-rich solution [2]: more than 8 μg/mL | content in basic triterpenoid-rich solution [3]: more than 8 μg/mL
